According to PubChem BioAssay AID186 (DTP/NCI, 2004):
Values are animals surviving of animals treated; these mice carried no tumour. Survivors were counted at the toxicity check, usually on the fifth day, unless a day is given; later deaths do not show. Schedules are NCI's codes, taken here to give the interval after Q, in days (D) or hours (H), and the number of doses after X.

Tested on: B6D2F1 mice, nontumored toxicity test, survival
Assay: NCI In Vivo Anticancer Drug Screen. Data for tumor model Nontumored Animals (Toxicity Test) in B6D2F1 (BDF1) mice

For `COc1cccc2c1C(=O)c1c(O)c3c(c(O)c1C2=O)C[C@@](O)(/C(C)=N/NC(=O)c1ccccc1)C[C@@H]3OC1CC(N)C(O)C(C)O1` (stereo partly specified), the survivor count (dose: 0.18 mg/kg/injection, schedule: Q03HX008 (ip), vehicle: water) was 6 of 6, the survivor count (dose: 0.5 mg/kg/injection, schedule: Q01DX009 (ip), vehicle: water) was 6 of 6 and the survivor count (dose: 0.5 mg/kg/injection, schedule: Q03HX024 (ip), vehicle: water) was 6 of 6. The survivor count (dose: 0.78 mg/kg/injection, schedule: Q03HX024 (ip), vehicle: water) was 6 of 6, the survivor count (dose: 1.0 mg/kg/injection, schedule: Q01DX009 (ip), vehicle: water) was 6 of 6 and the survivor count (dose: 1.0 mg/kg/injection, schedule: Q03HX008 (ip), vehicle: water) was 5 of 6. For the same compound, the survivor count (dose: 1.0 mg/kg/injection, schedule: Q03HX024 (ip), vehicle: water) was 6 of 6, the survivor count (dose: 1.17 mg/kg/injection, schedule: Q03HX024 (ip), vehicle: water) was 6 of 6 and the survivor count (dose: 1.2 mg/kg/injection, schedule: Q01DX009 (ip), vehicle: water) was 6 of 6. For the same compound, the survivor count (dose: 1.2 mg/kg/injection, schedule: Q03HX008 (ip), vehicle: water) was 6 of 6, the survivor count (dose: 1.75 mg/kg/injection, schedule: Q03HX008 (ip), vehicle: water) was 6 of 6 and the survivor count (dose: 1.75 mg/kg/injection, schedule: Q03HX024 (ip), vehicle: water) was 6 of 6. For the same compound, the survivor count (dose: 1.76 mg/kg/injection, schedule: Q01DX009 (ip), vehicle: water) was 6 of 6, the survivor count (dose: 2.0 mg/kg/injection, schedule: Q01DX009 (ip), vehicle: water) was 6 of 6 and the survivor count (dose: 2.0 mg/kg/injection, schedule: Q03HX008 (ip), vehicle: water) was 8 of 8. For the same compound, the survivor count (dose: 2.0 mg/kg/injection, schedule: Q03HX024 (ip), vehicle: water) was 6 of 6, the survivor count (dose: 2.5 mg/kg/injection, schedule: Q04DX003 (ip), vehicle: water) was 6 of 6 and the survivor count (dose: 2.6 mg/kg/injection, schedule: Q01DX009 (ip), vehicle: water) was 6 of 6. For the same compound, the survivor count (dose: 2.6 mg/kg/injection, schedule: Q03HX008 (ip), vehicle: water) was 6 of 6, the survivor count (dose: 2.6 mg/kg/injection, schedule: Q03HX024 (ip), vehicle: water) was 6 of 6 and the survivor count (dose: 2.6 mg/kg/injection, schedule: Q04DX003 (ip), vehicle: water) was 6 of 6. The survivor count (dose: 3.9 mg/kg/injection, schedule: Q01DX001 (ip), vehicle: water) was 6 of 6, the survivor count (dose: 3.9 mg/kg/injection, schedule: Q01DX009 (ip), vehicle: water) was 6 of 6 and the survivor count (dose: 3.9 mg/kg/injection, schedule: Q03HX008 (ip), vehicle: water) was 6 of 6. The survivor count (dose: 3.9 mg/kg/injection, schedule: Q03HX024 (ip), vehicle: water) was 6 of 6, the survivor count (dose: 3.9 mg/kg/injection, schedule: Q04DX003 (ip), vehicle: water) was 5 of 6 and the survivor count (dose: 4.0 mg/kg/injection, schedule: Q03HX008 (ip), vehicle: water) was 6 of 6. For the same compound, the survivor count (dose: 5.0 mg/kg/injection, schedule: Q01DX001 (ip), vehicle: water) was 6 of 6, the survivor count (dose: 5.0 mg/kg/injection, schedule: Q04DX003 (ip), vehicle: water) was 6 of 6 and the survivor count (dose: 5.0 mg/kg/injection, schedule: Q08DX002 (ip), vehicle: water) was 6 of 6. For the same compound, the survivor count (dose: 5.9 mg/kg/injection, schedule: Q01DX001 (ip), vehicle: water) was 6 of 6, the survivor count (dose: 5.9 mg/kg/injection, schedule: Q01DX009 (ip), vehicle: water) was 5 of 6 and the survivor count (dose: 5.9 mg/kg/injection, schedule: Q03HX008 (ip), vehicle: water) was 6 of 6. For the same compound, the survivor count (dose: 5.9 mg/kg/injection, schedule: Q03HX024 (ip), vehicle: water) was 5 of 6, the survivor count (dose: 5.9 mg/kg/injection, schedule: Q04DX003 (ip), vehicle: water) was 6 of 6 and the survivor count (dose: 8.9 mg/kg/injection, schedule: Q01DX001 (ip), vehicle: water) was 6 of 6. For the same compound, the survivor count (dose: 8.9 mg/kg/injection, schedule: Q01DX009 (ip), vehicle: water) was 6 of 6, the survivor count (dose: 8.9 mg/kg/injection, schedule: Q04DX003 (ip), vehicle: water) was 6 of 6 and the survivor count (dose: 10.0 mg/kg/injection, schedule: Q01DX001 (ip), vehicle: water) was 6 of 6. The survivor count (dose: 10.0 mg/kg/injection, schedule: Q04DX003 (ip), vehicle: water) was 6 of 6, the survivor count (dose: 10.0 mg/kg/injection, schedule: Q08DX002 (ip), vehicle: water) was 6 of 6 and the survivor count (dose: 13.3 mg/kg/injection, schedule: Q01DX001 (ip), vehicle: water) was 6 of 6. For the same compound, the survivor count (dose: 13.3 mg/kg/injection, schedule: Q04DX003 (ip), vehicle: water) was 5 of 6, the survivor count (dose: 20.0 mg/kg/injection, schedule: Q01DX001 (ip), vehicle: water) was 6 of 6 and the survivor count (dose: 20.0 mg/kg/injection, schedule: Q04DX003 (ip), vehicle: water) was 6 of 6. The survivor count (dose: 20.0 mg/kg/injection, schedule: Q08DX002 (ip), vehicle: water) was 6 of 6 and the survivor count (dose: 30.0 mg/kg/injection, schedule: Q01DX001 (ip), vehicle: water) was 5 of 6.
In the case of `Nc1nc(=O)n(C2OC(CO)C(O)C2O)cc1F` (stereo unspecified), the survivor count (dose: 8.0 mg/kg/injection, schedule: Q01DX009 (oral), vehicle: saline) was 8 of 8, the survivor count (dose: 16.0 mg/kg/injection, schedule: Q01DX009 (oral), vehicle: saline) was 8 of 8 and the survivor count (dose: 32.0 mg/kg/injection, schedule: Q01DX009 (oral), vehicle: saline) was 8 of 8. For the same compound, the survivor count (dose: 64.0 mg/kg/injection, schedule: Q01DX009 (oral), vehicle: saline) was 8 of 8, the survivor count (dose: 128.0 mg/kg/injection, schedule: Q01DX001 (oral), vehicle: saline) was 8 of 8 and the survivor count (dose: 128.0 mg/kg/injection, schedule: Q01DX009 (oral), vehicle: saline) was 8 of 8. The survivor count (dose: 256.0 mg/kg/injection, schedule: Q01DX001 (oral), vehicle: saline) was 8 of 8, the survivor count (dose: 512.0 mg/kg/injection, schedule: Q01DX001 (oral), vehicle: saline) was 8 of 8 and the survivor count (dose: 1024.0 mg/kg/injection, schedule: Q01DX001 (oral), vehicle: saline) was 8 of 8.
